In this data set the test system is TATA binding protein (TBP). Briefly: competition (sequestration from fluorescent TFprobe). Particulars: 5 mM MgCl2, 10-fold excess over probe, affinity significantly greater than TFprobe, pseudo-Hill coefficient 4.3; 50 mM sodium phosphate pH 7.0, 150 mM NaCl, 5 mM MgCl2, 25 °C; 10 nM labeled TF switch; recombinant protein; folded or branched DNA.

Here are results for 1 sequence from paper PMC3188500.

For at least one entry, the source does not settle the construct or the ends of the probe.

As for “CGTATATAAAGGTTTTTTTCCTTTATATACG [TFDep (unlabeled hairpin depletant)]”, the binding result is recorded as “binds”.
